The values that follow come from PubChem BioAssay AID445 (National Center for Advancing Translational Sciences (NCATS), 2006).

SMILES strings stand for the structures. This is one part of the list. These are further read-outs of the screen, such as a control signal, another cell line or another target. No call is given for them. Most of these compounds were active or inconclusive in the main read-out, so they are no random draw. Words in brackets tell the shape of the fitted curve; partial curves, single points and poor fits give uncertain potencies.

A short description of the assay: IkB Signaling. The settings on record: ABC-DLBCL IkBa-CBG/CBR dual luciferase ratio (green luciferase fused to IkBa over red control in OCI-Ly3 lymphoma cells), 4 h; measured here: control luc red channel unless noted. In a few lines: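 Luminescence ratio of IκBα-fused green versus native red beetle luciferase in OCI-Ly3 cells, 4 h post-doxycycline with compound; red signal alone, scaled from basal (0%) to zero light (-100%), flagged nonspecific or cytotoxic effects.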
For the compound `O=C(Nc1ccc(Cl)cc1)c1cnn2c1NC(c1ccccc1)=CC2c1ccccc1` (centres undefined), the concentration at half-maximal activity (AC50) (as a rule, the midpoint of the concentration-response curve, whichever way the signal moves) is 12.6 µM [falling, partial curve].

As for `CCOC(=O)c1scc(-c2ccccc2)c1S(=O)(=O)N1CCN(c2ccc(Cl)cc2)CC1`, the AC50 was 0.501 µM [falling, full curve, poor fit].

Turning to `Cc1ccc(S(=O)(=O)NC2OC(=O)C(Cl)=C2Cl)cc1` (centres undefined), the half-maximal activity concentration (AC50) was 39.8 µM [rising, single point] [measured here: IkB-luc green channel].

Regarding `O=C(CSc1ccc(Cl)cc1)Nc1ccc(N2CCN(C(=O)c3ccco3)CC2)cc1`, the AC50 is 3.98 µM [falling, full curve].

On to `c1ccc2oc(SCc3cn4ccccc4n3)nc2c1`, for which the half-maximal activity concentration (AC50) is 20 µM [falling, partial curve, poor fit].

As for `COc1cccc(N2CCN(C(=O)c3cnc4c(-c5ccccc5)c(C)nn4c3C)CC2)c1`, the AC50 was 20 µM [falling, single point].

`Cc1ccccc1NC(=O)NCCc1c[nH]c2ccccc12`: the AC50 was 12.6 µM [falling, partial curve].

For `COc1ccc(S(=O)(=O)Cc2ccc(C(=O)N3CCN(c4ccc(Cl)cc4)CC3)o2)cc1`, the AC50 was 10 µM [falling, partial curve].

Turning to `O=C1CC(c2cccs2)Sc2nc3ccccc3n21` (centres undefined), the AC50 is 15.8 µM [falling, partial curve].

On to `Cc1ccccc1Nc1ncnc2c1cnn2-c1ccccc1`, for which the AC50 is 31.6 µM [falling, partial curve].

With `COC(=O)c1cc(NS(=O)(=O)c2ccc3c(c2)OCCO3)ccc1Cl`, the AC50 is 12.6 µM [falling, single point].

Take `CS(=O)c1nc(-c2ccc(Br)cc2)cc(-c2ccccc2)c1C#N` (centres undefined): the half-maximal activity concentration (AC50) was 3.16 µM [falling, full curve].

For `O=C(Nc1nc(-c2cccs2)cs1)c1ccc(S(=O)(=O)N2CCCC2)cc1`, the AC50 was 10 µM [falling, partial curve].

As for `CCOc1ccccc1NC(=O)CSc1nc2ccccc2nc1N1CCOCC1`, the AC50 was 7.94 µM [falling, partial curve].

With `COc1ccc(NC(=O)c2cc(Cl)ccc2NC(=O)c2ccco2)c(OC)c1`, the AC50 was 12.6 µM [falling, partial curve].

Turning to `COc1ccc(-c2noc(N3CCC(C(=O)Nc4cccc(C)c4C)CC3)n2)cc1`, the AC50 is 0.0501 µM [falling, full curve, poor fit].

With `CCOc1cc(CNC(=O)c2cc(-c3ccccc3)n[nH]2)cc(OCC)c1OCC`, the AC50 is 10 µM [falling, single point].

Take `COc1ccc(CCNC(=O)c2cnn(-c3ccc(F)cc3)c2C2CCN(C(=O)OC(C)(C)C)CC2)cc1OC`: the AC50 is 25.1 µM [falling, partial curve].

On to `CCOc1cc(C(c2c(C)[nH]n(-c3ccccc3)c2=O)c2c(C)[nH]n(-c3ccccc3)c2=O)ccc1O`, for which the AC50 was 25.1 µM [rising, partial curve] [measured here: IkB-luc green channel].

Take `CC(C)OC(=O)CSc1nnc(-c2ccc(Cl)cc2Cl)o1`: the AC50 was 39.8 µM [falling, single point].

Take `CC(Oc1ccccc1)C(=O)Nc1ccc(C(=O)OCc2cc(=O)n3nc(C(C)C)sc3n2)cc1` (centres undefined): the AC50 was 20 µM [falling, partial curve].

In the case of `COC(=O)c1ccccc1NC(=O)CN(C)S(=O)(=O)c1ccc(OC)c(C)c1`, the AC50 was 20 µM [falling, partial curve].

With `COc1ccc(C(=O)Nc2ccc(-c3nc4ncccc4o3)cc2C)cc1Br`, the AC50 is 7.94 µM [falling, partial curve].

Consider `CCn1c(=O)c2cc(C(=O)Nc3cccc(C(F)(F)F)c3)sc2c2ccccc21`, for which the AC50 was 1.26 µM [falling, full curve].

As to `COc1ccc(NC(=O)c2c(NCc3ccc(C)o3)sc3c2CCCCC3)c(OC)c1`, the AC50 was 31.6 µM [falling, single point].

In the case of `Cc1nc2cc(NC(=O)NCCC3=CCCCC3)ccc2o1`, the AC50 is 20 µM [falling, partial curve].

As to `CCOC(=O)C1CCCN(C2CC(=O)N(c3cccc(C(F)(F)F)c3)C2=O)C1` (centres undefined), the AC50 is 31.6 µM [falling, partial curve].

In the case of `COc1ccc(-n2c(/C=C/c3cccc4ccccc34)nc3ccccc3c2=O)cc1OC`, the AC50 is 6.31 µM [falling, partial curve, poor fit].

On to `COc1ccc(N2C(N)=C(C#N)C(c3cccnc3)C3=C2CC(C)(C)CC3=O)cc1` (centres undefined), for which the AC50 was 39.8 µM [rising, single point] [measured here: IkB-luc green channel].

With `CCn1cc(C(=O)NCCc2ccc(Cl)cc2)c(=O)c2cc(S(=O)(=O)N(C)C3CCCCC3)ccc21`, the AC50 was 12.6 µM [falling, partial curve].

Take `COc1ccc(Cn2c(C(=O)O)c(CNCc3ccc(OC)cc3OC)c3ccc(C)cc32)cc1`: the AC50 was 12.6 µM [falling, partial curve].

In the case of `CCc1ccc2oc(-c3cc(N=Cc4cccc(OC)c4O)ccc3O)nc2c1`, the AC50 was 31.6 µM [falling, single point].

For `COc1ccc(CCCc2nnc(SCC(=O)Nc3cc(F)ccc3C)o2)cc1`, the AC50 is 25.1 µM [falling, partial curve].

Turning to `CCOc1ccc(CNC(=O)c2ccc3c(Cl)c4c(nc3c2)CCCC4)cc1`, the AC50 is 5.01 µM [falling, partial curve].

For `CN(C(=O)CSc1nc2ccc(NC(=O)c3cccc(F)c3)cc2s1)c1ccccc1`, the AC50 was 12.6 µM [falling, partial curve].

In the case of `COc1cc(Cl)c(C)cc1NC(=O)CC1Oc2ccccc2NC1=O` (centres undefined), the AC50 is 31.6 µM [falling, partial curve, poor fit].

As to `CCOC(=O)c1c(NC(C)=O)c2c3c(sc2n1Cc1c(C)cc(C)cc1C)CCCC3`, the AC50 was 39.8 µM [falling, single point].

Take `Cc1c(Cl)cccc1NC(=O)c1oc2ccc(S(=O)(=O)N3CCCCCC3)cc2c1C`: the concentration at half-maximal activity (AC50) is 10 µM [falling, single point].

For `O=C(Nc1cccc(F)c1)c1ccc2oc(=O)n(Cc3ccccc3)c2c1`, the concentration at half-maximal activity (AC50) was 3.16 µM [falling, full curve, poor fit].
